The record followed here is the supplement of paper PMC9671908.

Counter-ions that a name gives are not always drawn. The list shows a part of the results. Most values come without repeats; read them as rough.

The test system of one experiment is MIA PaCa-2 parental. Briefly: parental cell viability relative to untreated parental control; higher = more surviving cells. The note with it: treatment time: 9 days.
Another experiment concerns MIA PaCa-2 persister. Briefly: persister cell viability relative to untreated persister control; higher = more surviving persister cells. The note with it: treatment time: 9 days; cell state: persister (100 nM gemcitabine + 100 nM Torin1).

For the compound `CC(C)N(CCCNC(=O)Nc1ccc(C(C)(C)C)cc1)C[C@H]1O[C@@H](n2cc(Br)c3c(N)ncnc32)[C@H](O)[C@@H]1O` (inhibitor concentration: 10µM), the parental cell viability in the experiment on MIA PaCa-2 parental turned out to be 96%. For the same compound, in the experiment with MIA PaCa-2 persister, the persister cell viability amounted to 100%.
Taken in the same sequence, the figures for `O=S(=O)(NCCSSCCNS(=O)(=O)c1cc(Cl)ccc1Cl)c1cc(Cl)ccc1Cl` (inhibitor concentration: 10µM) were 98% and 102%.
The like results for `Cc1nn(C)c(COc2ccc(N3CCN(S(=O)(=O)N(C)C)CC3)cc2)c1-c1cccc2c(CCCOc3cccc4ccccc34)c(C(=O)O)n(CCN3CCOCC3)c12` (inhibitor concentration: 10µM) were, in that order, 80% and 25%.
For `CC[C@@H]1C(=O)N(C)c2cnc(Nc3ccc(C(=O)N[C@H]4CC[C@H](N5CCN(CC6CC6)CC5)CC4)cc3OC)nc2N1C(C)C` [Volasertib] (inhibitor concentration: 100nM), the parental cell viability in the experiment with MIA PaCa-2 parental is 12%. Also, the persister cell viability in the experiment with MIA PaCa-2 persister came to 100%.
Consider `Cc1ccc(Oc2ccnc3cc(-c4cnn(C5CCNCC5)c4)ccc23)cc1` (inhibitor concentration: 30µM), for which the parental cell viability in the experiment on MIA PaCa-2 parental was 100%. In addition, the persister cell viability with MIA PaCa-2 persister was found to be 97%.
As to `O=C(Nc1cccc(Nc2ncc(Br)c(NCCc3cnc[nH]3)n2)c1)N1CCCC1` (inhibitor concentration: 10µM), in the experiment on MIA PaCa-2 parental, the parental cell viability was determined as 20%. Moreover, the persister cell viability in the experiment on MIA PaCa-2 persister was determined as 330%.
As for `CC(=O)N[C@@H](CC(=O)O)C(=O)N[C@@H](CCC(=O)O)C(=O)N[C@H](C(=O)N[C@@H](CC(=O)O)C(=O)CCl)C(C)C` [Ac-DEVD-CMK (trifluoroacetate-salt)] (inhibitor concentration: 30µM), the parental cell viability in the experiment with MIA PaCa-2 parental was 101%. Also, the persister cell viability with MIA PaCa-2 persister stood at 96.5%.
In the case of `CC1(C)CCC(c2ccc(Cl)cc2)=C(CN2CCN(c3ccc(C(=O)NS(=O)(=O)c4ccc(N[C@H](CCN5CCOCC5)CSc5ccccc5)c(S(=O)(=O)C(F)(F)F)c4)cc3)CC2)C1` (inhibitor concentration: 3µM), the parental cell viability with MIA PaCa-2 parental worked out at 102%. Moreover, the persister cell viability with MIA PaCa-2 persister is 5%.
On to `Cc1cc([C@@H](C)Nc2ccccc2C(=O)O)c2nc(N3CCOCC3)cc(=O)n2c1` (inhibitor concentration: 30µM), for which, in the experiment with MIA PaCa-2 parental, the parental cell viability was 61%. For the same compound, the persister cell viability in the experiment on MIA PaCa-2 persister is 91%.
Taken in the same sequence, the figures for `Cn1ncc(Cl)c1-c1cc(C(=O)N[C@H](CN)Cc2ccc(F)c(F)c2)oc1Cl` [Uprosertib] (inhibitor concentration: 3µM) were 97% and 102%.
Taken in the same sequence, the figures for `Cn1cc(CNCC2CCN(c3ncc(C(=O)NO)cn3)CC2)c2ccccc21` (inhibitor concentration: 10nM) were 90% and 106%.
As to `Cc1cnc(NC(=O)Nc2cc(Br)c(C)cc2OC[C@@H]2CNCCO2)cn1` (inhibitor concentration: 30nM), in the experiment on MIA PaCa-2 parental, the parental cell viability worked out at 92%. Also, the persister cell viability in the experiment on MIA PaCa-2 persister is 6%.
Taken in the same sequence, the figures for `CC[C@H](CO)Nc1nc(NCc2ccccc2)c2ncn(C(C)C)c2n1` [Roscovitine] (inhibitor concentration: 30µM) were 9% and 109%.
The like results for `CC(C)c1c(-c2ccccc2)nc2c(C#N)c[nH]n2c1=O` (inhibitor concentration: 30µM) were, in that order, 104% and 95%.
Taken in the same sequence, the figures for `c1cc(-c2cnn3cc(-c4ccc(OCCN5CCCCC5)cc4)cnc23)ccn1` [Dorsomorphin] (inhibitor concentration: 1µM) were 84.5% and 105%.
For the compound `COc1cccc(-n2c(=O)[nH]c3cc(Cl)n(-c4ccc(-c5cccc(OC)c5O)cc4)c3c2=O)c1` (inhibitor concentration: 30µM), in the experiment on MIA PaCa-2 parental, the parental cell viability came to 78.5%. For the same compound, the persister cell viability in the experiment with MIA PaCa-2 persister stood at 150%.
As for `COC1=CC(c2cc3ccccc3[nH]2)=N/C1=C\c1[nH]c(C)cc1C` [Obatoclax (mesylate)] (inhibitor concentration: 30nM), the parental cell viability in the experiment with MIA PaCa-2 parental stood at 100%. Also, the persister cell viability with MIA PaCa-2 persister amounted to 99%.
With `Cn1ncc(Cl)c1-c1cc(C(=O)N[C@H](CN)Cc2cccc(F)c2)sc1Cl` [Afuresertib (hydrochloride)] (inhibitor concentration: 10µM), the parental cell viability with MIA PaCa-2 parental is 108%. In addition, the persister cell viability in the experiment with MIA PaCa-2 persister turned out to be 107%.
For `Cc1cc(F)c(C(=O)Nc2cccc(-c3nncn3C(C)C)n2)cc1-n1cnc(C2CC2)c1` [Selonsertib] (inhibitor concentration: 10µM), the parental cell viability with MIA PaCa-2 parental came to 80%. Further, in the experiment with MIA PaCa-2 persister, the persister cell viability is 93.5%.
Consider `C[C@@H]1COCCN1c1cc(=O)n2c(n1)N(Cc1cncc(Cl)c1)[C@H](C(F)(F)F)CC2` (inhibitor concentration: 10µM), for which the parental cell viability in the experiment with MIA PaCa-2 parental was 75%. Also, the persister cell viability in the experiment on MIA PaCa-2 persister stood at 15%.
As for `O=C(O)C(Cc1ccccc1[N+](=O)[O-])=NNc1nc(-c2ccc(Cl)c(Cl)c2)cs1` (mixture of isomers) (inhibitor concentration: 10µM), the parental cell viability with MIA PaCa-2 parental came to 99%. Moreover, in the experiment on MIA PaCa-2 persister, the persister cell viability stood at 102%.
`N#Cc1cnc(Nc2cc(NC[C@H]3CNCCO3)c(C(F)(F)F)cn2)cn1` (inhibitor concentration: 3µM): in the experiment on MIA PaCa-2 parental, the parental cell viability turned out to be 100%. For the same compound, the persister cell viability with MIA PaCa-2 persister came out at 16%.
Taken in the same sequence, the figures for `O=C(c1cc(Cc2n[nH]c(=O)c3ccccc23)ccc1F)N1CCN(C(=O)C2CC2)CC1` [Olaparib] (inhibitor concentration: 300µM) were 21% and 81%.
For the compound `COc1ccc(C(=O)N2c3ccccc3Sc3ccc(Cl)cc32)cc1` (inhibitor concentration: 1µM), the parental cell viability in the experiment with MIA PaCa-2 parental was determined as 22%. Also, the persister cell viability in the experiment on MIA PaCa-2 persister stood at 76%.
